Reference: the supplement of paper PMC12067093, “Discovery and optimisation of a covalent ligand for TRIM25 and its application to targeted protein ubiquitination” (Chemical Science, 2025)
The other results are listed elsewhere or left out.

Amino acid sequences for entries named in this document (tags omitted). A change or cut given only in a name is not applied to a line headed by its entry.
UniProt Q86UK7: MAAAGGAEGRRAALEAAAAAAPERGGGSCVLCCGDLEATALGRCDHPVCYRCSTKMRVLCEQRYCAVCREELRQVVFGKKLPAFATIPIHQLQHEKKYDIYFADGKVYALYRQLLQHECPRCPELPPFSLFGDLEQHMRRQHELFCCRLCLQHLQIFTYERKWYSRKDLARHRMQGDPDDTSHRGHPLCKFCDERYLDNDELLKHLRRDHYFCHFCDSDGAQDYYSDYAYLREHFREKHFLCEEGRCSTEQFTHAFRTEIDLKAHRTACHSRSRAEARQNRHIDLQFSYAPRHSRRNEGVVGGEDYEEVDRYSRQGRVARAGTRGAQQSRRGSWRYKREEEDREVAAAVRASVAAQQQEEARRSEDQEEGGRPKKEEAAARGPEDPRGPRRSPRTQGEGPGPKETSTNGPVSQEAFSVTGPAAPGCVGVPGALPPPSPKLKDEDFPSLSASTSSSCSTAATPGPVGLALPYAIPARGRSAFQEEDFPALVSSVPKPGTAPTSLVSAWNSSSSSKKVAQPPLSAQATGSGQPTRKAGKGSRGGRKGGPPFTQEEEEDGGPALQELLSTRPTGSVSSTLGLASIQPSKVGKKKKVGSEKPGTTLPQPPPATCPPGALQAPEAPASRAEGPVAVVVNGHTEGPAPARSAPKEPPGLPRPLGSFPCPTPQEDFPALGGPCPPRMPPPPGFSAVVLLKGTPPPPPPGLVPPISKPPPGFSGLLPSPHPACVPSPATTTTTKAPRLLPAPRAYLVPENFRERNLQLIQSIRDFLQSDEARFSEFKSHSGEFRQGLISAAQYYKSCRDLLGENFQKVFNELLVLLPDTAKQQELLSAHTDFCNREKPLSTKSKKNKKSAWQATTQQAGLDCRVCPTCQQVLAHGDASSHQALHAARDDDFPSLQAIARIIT
UniProt Q9BU19: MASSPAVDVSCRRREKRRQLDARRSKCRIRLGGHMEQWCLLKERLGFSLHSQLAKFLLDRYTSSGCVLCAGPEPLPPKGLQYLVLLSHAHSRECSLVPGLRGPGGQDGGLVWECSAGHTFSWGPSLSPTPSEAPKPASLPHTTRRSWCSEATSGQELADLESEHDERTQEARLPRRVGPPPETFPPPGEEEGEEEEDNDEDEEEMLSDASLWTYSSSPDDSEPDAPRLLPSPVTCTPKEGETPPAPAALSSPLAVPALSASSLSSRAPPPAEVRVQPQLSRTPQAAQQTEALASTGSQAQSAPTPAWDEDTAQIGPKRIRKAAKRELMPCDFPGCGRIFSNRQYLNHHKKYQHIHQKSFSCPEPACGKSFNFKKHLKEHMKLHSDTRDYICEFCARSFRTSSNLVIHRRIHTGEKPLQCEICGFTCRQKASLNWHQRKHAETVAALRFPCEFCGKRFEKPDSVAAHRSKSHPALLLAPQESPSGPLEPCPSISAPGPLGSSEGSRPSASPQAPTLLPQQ
UniProt Q9BQ24: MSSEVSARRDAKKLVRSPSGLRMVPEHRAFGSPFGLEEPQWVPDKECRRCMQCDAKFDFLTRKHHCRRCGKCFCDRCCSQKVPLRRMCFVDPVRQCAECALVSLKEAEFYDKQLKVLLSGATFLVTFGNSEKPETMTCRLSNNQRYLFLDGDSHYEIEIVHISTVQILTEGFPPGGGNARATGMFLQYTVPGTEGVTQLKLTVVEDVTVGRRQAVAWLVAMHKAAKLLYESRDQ
UniProt Q9Y3S2: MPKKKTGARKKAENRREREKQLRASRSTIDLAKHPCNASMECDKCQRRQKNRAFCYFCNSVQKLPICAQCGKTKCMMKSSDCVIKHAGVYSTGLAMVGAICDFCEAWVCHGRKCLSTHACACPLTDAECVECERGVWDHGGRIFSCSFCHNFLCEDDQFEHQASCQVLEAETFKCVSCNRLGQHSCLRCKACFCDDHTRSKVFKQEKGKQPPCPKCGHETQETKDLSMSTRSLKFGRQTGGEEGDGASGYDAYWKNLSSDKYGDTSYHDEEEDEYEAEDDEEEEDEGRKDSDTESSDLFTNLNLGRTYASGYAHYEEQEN
UniProt Q9Y4E5: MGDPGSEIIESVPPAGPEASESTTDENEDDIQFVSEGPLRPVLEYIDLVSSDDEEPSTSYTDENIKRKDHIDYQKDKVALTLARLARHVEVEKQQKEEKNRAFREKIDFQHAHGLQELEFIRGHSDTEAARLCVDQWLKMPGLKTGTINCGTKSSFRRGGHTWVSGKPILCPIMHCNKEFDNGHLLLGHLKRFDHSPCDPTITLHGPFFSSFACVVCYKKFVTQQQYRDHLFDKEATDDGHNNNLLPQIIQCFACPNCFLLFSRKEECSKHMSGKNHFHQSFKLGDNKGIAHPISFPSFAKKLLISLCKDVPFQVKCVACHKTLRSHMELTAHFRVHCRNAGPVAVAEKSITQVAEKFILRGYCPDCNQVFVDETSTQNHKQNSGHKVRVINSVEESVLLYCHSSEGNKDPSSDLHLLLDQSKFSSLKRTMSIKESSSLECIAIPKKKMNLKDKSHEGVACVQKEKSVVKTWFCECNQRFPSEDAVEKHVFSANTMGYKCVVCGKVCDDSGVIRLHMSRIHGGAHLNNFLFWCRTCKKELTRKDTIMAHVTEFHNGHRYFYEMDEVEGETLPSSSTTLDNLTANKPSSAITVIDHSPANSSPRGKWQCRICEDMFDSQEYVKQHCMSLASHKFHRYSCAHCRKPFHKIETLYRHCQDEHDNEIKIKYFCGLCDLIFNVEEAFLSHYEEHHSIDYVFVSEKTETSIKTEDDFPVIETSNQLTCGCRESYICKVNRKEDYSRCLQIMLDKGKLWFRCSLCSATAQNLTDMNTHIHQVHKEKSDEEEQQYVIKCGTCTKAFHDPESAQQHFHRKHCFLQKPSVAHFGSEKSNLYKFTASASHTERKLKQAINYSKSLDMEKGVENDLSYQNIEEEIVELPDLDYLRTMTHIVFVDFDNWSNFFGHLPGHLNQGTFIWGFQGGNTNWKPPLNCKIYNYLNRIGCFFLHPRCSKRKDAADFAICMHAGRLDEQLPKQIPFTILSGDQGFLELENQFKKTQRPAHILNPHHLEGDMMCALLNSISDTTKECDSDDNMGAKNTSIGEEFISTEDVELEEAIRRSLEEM
UniProt Q14202: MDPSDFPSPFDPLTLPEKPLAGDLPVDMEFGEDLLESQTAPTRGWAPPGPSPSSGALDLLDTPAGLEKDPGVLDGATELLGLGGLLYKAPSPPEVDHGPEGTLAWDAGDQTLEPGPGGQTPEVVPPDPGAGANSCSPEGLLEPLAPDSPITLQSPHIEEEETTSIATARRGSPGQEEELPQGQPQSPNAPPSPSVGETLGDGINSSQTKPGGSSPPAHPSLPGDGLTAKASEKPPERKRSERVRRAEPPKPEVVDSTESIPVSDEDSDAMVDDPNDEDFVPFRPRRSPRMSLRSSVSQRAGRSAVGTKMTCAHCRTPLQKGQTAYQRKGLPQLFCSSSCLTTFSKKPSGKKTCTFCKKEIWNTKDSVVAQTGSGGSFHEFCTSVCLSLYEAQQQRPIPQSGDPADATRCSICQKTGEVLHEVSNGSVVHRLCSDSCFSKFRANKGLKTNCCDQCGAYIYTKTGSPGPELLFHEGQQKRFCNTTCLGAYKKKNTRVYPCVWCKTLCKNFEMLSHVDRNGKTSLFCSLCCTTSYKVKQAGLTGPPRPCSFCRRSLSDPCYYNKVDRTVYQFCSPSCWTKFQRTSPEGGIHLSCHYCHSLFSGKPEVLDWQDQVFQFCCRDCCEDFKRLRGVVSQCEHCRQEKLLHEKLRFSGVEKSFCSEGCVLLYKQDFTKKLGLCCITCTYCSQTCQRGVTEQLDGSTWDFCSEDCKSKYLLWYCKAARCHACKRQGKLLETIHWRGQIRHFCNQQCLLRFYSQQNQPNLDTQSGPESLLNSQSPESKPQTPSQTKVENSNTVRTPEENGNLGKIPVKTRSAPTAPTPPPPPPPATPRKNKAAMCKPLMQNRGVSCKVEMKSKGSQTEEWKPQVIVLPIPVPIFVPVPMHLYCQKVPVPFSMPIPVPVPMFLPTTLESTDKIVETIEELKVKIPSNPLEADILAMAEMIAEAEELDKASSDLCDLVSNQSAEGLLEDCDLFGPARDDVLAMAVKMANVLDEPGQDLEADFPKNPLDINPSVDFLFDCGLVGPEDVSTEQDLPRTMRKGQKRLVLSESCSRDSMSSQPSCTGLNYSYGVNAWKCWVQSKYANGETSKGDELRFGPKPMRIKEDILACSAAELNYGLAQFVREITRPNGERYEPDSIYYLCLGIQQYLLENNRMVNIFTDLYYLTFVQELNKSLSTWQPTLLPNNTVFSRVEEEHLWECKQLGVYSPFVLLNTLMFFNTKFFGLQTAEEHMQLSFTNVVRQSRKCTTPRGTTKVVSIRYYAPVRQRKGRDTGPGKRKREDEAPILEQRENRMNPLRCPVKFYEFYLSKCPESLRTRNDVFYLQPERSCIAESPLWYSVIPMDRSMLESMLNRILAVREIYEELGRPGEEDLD
UniProt Q9UBW7: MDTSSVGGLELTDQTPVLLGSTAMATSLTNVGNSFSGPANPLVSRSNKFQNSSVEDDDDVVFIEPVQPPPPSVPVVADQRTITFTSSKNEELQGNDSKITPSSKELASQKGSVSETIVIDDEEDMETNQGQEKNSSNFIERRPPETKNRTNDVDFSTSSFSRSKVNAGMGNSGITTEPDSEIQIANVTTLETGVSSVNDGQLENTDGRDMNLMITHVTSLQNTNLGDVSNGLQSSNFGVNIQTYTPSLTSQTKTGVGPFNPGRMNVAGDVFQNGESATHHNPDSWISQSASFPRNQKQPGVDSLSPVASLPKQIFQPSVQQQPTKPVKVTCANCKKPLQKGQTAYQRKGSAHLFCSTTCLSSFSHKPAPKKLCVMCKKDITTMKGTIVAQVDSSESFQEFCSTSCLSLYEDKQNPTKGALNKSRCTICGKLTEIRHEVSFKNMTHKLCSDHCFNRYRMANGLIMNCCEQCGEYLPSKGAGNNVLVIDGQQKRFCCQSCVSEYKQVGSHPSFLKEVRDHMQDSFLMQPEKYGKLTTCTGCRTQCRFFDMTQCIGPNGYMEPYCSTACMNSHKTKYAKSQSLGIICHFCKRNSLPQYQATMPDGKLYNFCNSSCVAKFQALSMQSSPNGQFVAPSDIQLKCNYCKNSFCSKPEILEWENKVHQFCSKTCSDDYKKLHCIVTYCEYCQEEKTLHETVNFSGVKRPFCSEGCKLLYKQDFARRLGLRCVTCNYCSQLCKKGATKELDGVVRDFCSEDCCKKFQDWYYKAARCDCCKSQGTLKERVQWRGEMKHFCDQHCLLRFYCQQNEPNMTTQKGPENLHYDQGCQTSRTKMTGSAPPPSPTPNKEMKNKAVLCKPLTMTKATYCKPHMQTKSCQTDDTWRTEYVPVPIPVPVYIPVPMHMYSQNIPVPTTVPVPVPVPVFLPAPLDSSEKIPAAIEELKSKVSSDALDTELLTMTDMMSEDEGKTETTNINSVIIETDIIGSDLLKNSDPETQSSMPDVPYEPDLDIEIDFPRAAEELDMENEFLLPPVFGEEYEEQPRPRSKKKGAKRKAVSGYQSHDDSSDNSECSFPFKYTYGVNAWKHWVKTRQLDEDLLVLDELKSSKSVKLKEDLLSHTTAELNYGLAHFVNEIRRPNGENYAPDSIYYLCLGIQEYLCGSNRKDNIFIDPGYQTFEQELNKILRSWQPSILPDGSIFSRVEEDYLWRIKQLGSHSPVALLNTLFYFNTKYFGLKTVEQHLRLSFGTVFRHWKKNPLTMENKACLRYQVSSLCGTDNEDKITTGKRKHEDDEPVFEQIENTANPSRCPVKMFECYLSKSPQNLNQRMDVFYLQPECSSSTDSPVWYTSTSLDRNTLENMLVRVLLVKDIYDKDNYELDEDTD
UniProt Q8ND82: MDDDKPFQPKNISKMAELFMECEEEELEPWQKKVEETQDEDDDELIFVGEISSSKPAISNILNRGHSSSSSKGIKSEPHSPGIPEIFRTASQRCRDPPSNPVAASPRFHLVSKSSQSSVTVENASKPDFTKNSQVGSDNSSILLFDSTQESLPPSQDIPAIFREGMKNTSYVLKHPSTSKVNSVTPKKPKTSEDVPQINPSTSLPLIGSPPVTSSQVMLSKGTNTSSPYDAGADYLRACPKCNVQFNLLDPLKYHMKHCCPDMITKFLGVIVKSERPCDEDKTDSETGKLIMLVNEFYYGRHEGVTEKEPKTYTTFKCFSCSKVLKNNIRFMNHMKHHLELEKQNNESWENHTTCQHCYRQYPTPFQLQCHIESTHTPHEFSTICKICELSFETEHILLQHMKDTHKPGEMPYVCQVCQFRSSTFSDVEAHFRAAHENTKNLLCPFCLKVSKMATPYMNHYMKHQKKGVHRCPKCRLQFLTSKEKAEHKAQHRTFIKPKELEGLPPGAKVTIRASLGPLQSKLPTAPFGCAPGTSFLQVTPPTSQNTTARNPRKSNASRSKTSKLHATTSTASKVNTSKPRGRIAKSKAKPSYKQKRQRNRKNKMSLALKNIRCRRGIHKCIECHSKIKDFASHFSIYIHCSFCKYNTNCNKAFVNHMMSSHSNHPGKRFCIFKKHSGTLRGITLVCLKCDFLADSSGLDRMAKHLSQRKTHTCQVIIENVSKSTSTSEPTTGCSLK

These targets were tested with Cc1cc(ccc1-c1ccccc1)C(=O)N1CCCN(CC1)C(=O)CCl [compound 10] (assay: probe-labelled cysteine peptide fold change vs DMSO (competition) (log2 fold change); higher = less target engagement (more negative = stronger competition)). Settings: 10 µM; THP-1; incubation time: 4 h.
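Also: competitive profiling in live THP-1 cells: cysteine peptides tagged with an iodoacetamide desthiobiotin (IA-DTB) probe, intensity after compound treatment relative to DMSO-treated cells.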

| Target | probe-labelled cysteine peptide fold change |
| --- | --- |
| ZNF124_Q15973_245_AFSCLSSLQGHIK (UniProt Q15973) | 0.0531 |
| ZNF598_Q86UK7_44_CDHPVCYR (UniProt Q86UK7) | 0.0102 |
| ZNF644_Q9H582_450_HLNVPRPYACR (UniProt Q9H582) | 0.184 |
| ZMYND8_Q9ULU4_103_EGQVLCCELCPR (UniProt Q9ULU4) | 0.0908 |
| ZNF692_Q9BU19_366_SFSCPEPACGK (UniProt Q9BU19) | 0.162 |
| ZFYVE21_Q9BQ24_99_QCAECALVSLK (UniProt Q9BQ24) | -0.0573 |
| ZNF207_O43670_54_LYTGPGLAIHCMQVHK (UniProt O43670) | 0.273 |
| ZFYVE16_Q7Z3T8_863_QPGVEGLCSK (UniProt Q7Z3T8) | -0.357 |
| ZNF330_Q9Y3S2_67+70_LPICAQCGK (UniProt Q9Y3S2) | -0.0938 |
| ZMYM4_Q5VZL5_948_ALLCKPITQTK (UniProt Q5VZL5) | -0.197 |
| ZNF451_Q9Y4E5_150_TGTINCGTK (UniProt Q9Y4E5) | -0.175 |
| ZMYM3_Q14202_633+636_GVVSQCEHCR (UniProt Q14202) | 0.0381 |
| ZNF516_Q92618_827_ECQPLLLAR (UniProt Q92618) | 0.21 |
| ZMYM2_Q9UBW7_608_LYNFCNSSCVAK (UniProt Q9UBW7) | -0.186 |
| ZNF638_Q14966_1156_ATCDSDFAVETLELETQGEEVK (UniProt Q14966) | -0.26 |
| ZFP64_Q9NPA5_196_CHTGVKPYK (UniProt Q9NTW7) | 0.138 |
| ZNF280C_Q8ND82_358_QNNESWENHTTCQHCYR (UniProt Q8ND82) | 0.182 |
| ZNF451_Q9Y4E5_741_CLQIMLDK (UniProt Q9Y4E5) | 0.0849 |

A few values from the entries so far.
probe-labelled cysteine peptide fold change with ZNF692_Q9BU19_366_SFSCPEPACGK (UniProt Q9BU19) reads 0.162
probe-labelled cysteine peptide fold change with ZNF451_Q9Y4E5_150_TGTINCGTK (UniProt Q9Y4E5) reads -0.175

Following part:

| Target | probe-labelled cysteine peptide fold change |
| --- | --- |
| ZFR_Q96KR1_844+856_CAVSEAAIILNSCVEPK (UniProt Q96KR1) | 0.0711 |
| ZNF646_O15015_1193_GCQTEASSERPFSCEVCGR (UniProt O15015) | -0.00431 |
| ZFPL1_O95159_24_VNVCEHCLVANHAK (UniProt O95159) | -0.0025 |
| ZMIZ2_Q8NF64_564_LLPAEHCITK (UniProt Q8NF64) | -0.0415 |
| ZNF598_Q86UK7_864_SAWQATTQQAGLDCR (UniProt Q86UK7) | 0.0264 |
| ZNF638_Q14966_688_EQSLHYGSVLLITELPEDGCTEEDVRK (UniProt Q14966) | 0.19 |
| ZNF670_Q9BS34_114_VFICHSALHR (UniProt Q9BS34) | -0.237 |
| ZNF638_Q14966_1077_QNPQNIGDHMLTCSLSPK (UniProt Q14966) | 0.0499 |
| ZFP91_Q96JP5_313+318_CEMEGCGTVLAHPR (UniProt Q96JP5) | -0.151 |
| ZHX3_Q9H4I2_11_STTPCMIPVK (UniProt Q9H4I2) | -0.138 |
| ZNF746_Q6NUN9_385_CKPPVGLNPR (UniProt Q6NUN9) | 0.209 |
| ZNF579_Q8NAF0_443_HAQVHAGGPAPHPCPR (UniProt Q8NAF0) | 0.341 |
| ZMYM3_Q14202_311+314_MTCAHCR (UniProt Q14202) | -0.199 |
| ZNF622_Q969S3_69_GSATYCTVCSK (UniProt Q969S3) | 0.0399 |
| ZNF280C_Q8ND82_714_THTCQVIIENVSK (UniProt Q8ND82) | -0.0679 |
| ZMYM3_Q14202_1073_CWVQSK (UniProt Q14202) | -0.162 |
| ZNF106_Q9H2Y7_1620_VLCLHSR (UniProt Q9H2Y7) | -0.0608 |
| ZMYM2_Q9UBW7_612_LYNFCNSSCVAK (UniProt Q9UBW7) | -0.192 |
